Reference: PubChem BioAssay AID2685 (National Center for Advancing Translational Sciences (NCATS), 2010)
The campaign covered roughly 320,000 compounds. About 2,100 (0.66%) were called active. This list was built around the results that the source calls inconclusive (neither active nor inactive); the mix of calls is not that of the screen. Calls come from the whole dose curve; as a rule, active = well fitted inhibition curve with a large enough effect in the signal ratio, with a control signal flat (not every such curve was filed as active); inconclusive = small, poorly fitted or top-dose-only effect, or effect the other way, or a change in a side signal; inactive = flat fitted curve, though single readings scatter; the % refers to the signal ratio. Where the call is inconclusive, the potency comes from a doubtful curve fit.
% is set by controls: 0 for no effect and ±100 for the full control effect; potency is the fitted concentration of half-maximal effect.

Assay: qHTS Assay for Lipid Storage Modulators in Drosophila S3 Cells
Details: BODIPY lipid droplet fluorescence, 18-24 h, cells fed with added oleic acid; lipid storage change, negative = inhibition: at 46.1 µM (top of the series) unless noted
Outline: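 Drosophila S3 cells loaded with oleic acid (400 uM, as added) and compounds at several concentrations; lipid droplets imaged by 488-nm laser-scanning cytometry, 500–530 nm intensity and object ratio to cell channel. Percent activity normalized to 20 uM Triacsin C.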
For `CCCN(CCC)S(=O)(=O)c1ccc(C(=O)O)cc1`, the lipid storage change, negative = inhibition was inconclusive: 3.15%. With `COc1cc(OC)cc(-c2c(-c3cccs3)c3cc(Br)ccc3n2C)c1` the lipid storage change, negative = inhibition was inconclusive: -3.38%. For `CCOc1ccccc1N1CCN(Cc2cccc(OC)c2OC)CC1`, the lipid storage change, negative = inhibition was inconclusive: 9.18%. For `O=C(Nc1ccccc1N1CCOCC1)c1csc2c1CCCC2`, the lipid storage change, negative = inhibition was inconclusive: 10.9%. With `CC/C(=N\NC(=O)CNC(=O)/C=C/c1ccc(OC)cc1)c1ccccc1` the Potency was inconclusive: 29.1 µM [activator, single point]. In the case of `CCOc1ccccc1NC(=O)CCNC(=O)c1ccco1`, the lipid storage change, negative = inhibition is reported as “inactive”. For `COc1ccccc1C(=O)OCC(=O)NC(=O)NC1CCCC1`, the lipid storage change, negative = inhibition was inconclusive: 16.4%. In the case of `C=CCNC(=O)C1CC(=O)N(c2ccc(OCC(=O)NCc3ccccc3)cc2)C1` (configuration not stated), the lipid storage change, negative = inhibition is reported as inconclusive: -58.5%. For `CCC(=O)c1ccccc1OCCN1C(=O)NC(C)(C)C1=O`, the lipid storage change, negative = inhibition was inconclusive: 0.919%. For `COc1cc(C2C(C(=O)c3ccc(C)o3)=C(O)C(=O)N2CCCn2ccnc2)cc(OC)c1OC` (configuration not stated), the lipid storage change, negative = inhibition was inconclusive: 29.7%. With `CCN(CCNCC(O)COc1ccccc1C(C)C)c1cccc(C)c1` (configuration not stated) the Potency was inconclusive: 23.1 µM [falling, single point]. In the case of `O=C(NC(=S)NC1CCCC1)c1ccccc1Br`, the lipid storage change, negative = inhibition is reported as inconclusive: 16.7%. In the case of `O=C1CCC(CCC(=O)N2CCCC(C(=O)c3cccc(C(F)(F)F)c3)C2)=NN1` (configuration not stated), the Potency is reported as inconclusive: 0.731 µM [falling, full curve, poor fit]. In the case of `Cc1ccc(C(=O)COC(=O)c2c(C)cc(=O)oc2C)cc1[N+](=O)[O-]`, the Potency is reported as inconclusive: 16.4 µM [activator, single point]. In the case of `CCOC(=O)c1sc2ncn(/N=C/c3ccc(O)c(OC)c3)c(=O)c2c1C`, the lipid storage change, negative = inhibition is reported as inconclusive: 21.2% [at 9.22 µM]. For `CCOc1ccccc1NC(=O)N1CCN(S(C)(=O)=O)CC1`, the lipid storage change, negative = inhibition was inconclusive: 7.98%. For `CC(C)(C)c1ccc(OCCC(=O)OCC(=O)Nc2ccc(N3CCOCC3)cc2)cc1`, the lipid storage change, negative = inhibition was “inconclusive”. For `O=C(O)c1ccc(OS(=O)(=O)c2cccc(C(F)(F)F)c2)cc1`, the Potency was inconclusive: 0.58 µM [activator, full curve, poor fit]. In the case of `CC(=O)Nc1ccc(NC(=O)Cn2c(=O)n(-c3ccccc3)c(=O)c3oc4ccccc4c32)cc1`, the Potency is reported as inconclusive: 0.146 µM [falling, full curve, poor fit]. With `COc1ccc(C2=NOC3(CC(=O)N(c4ccc(C)cc4)C3=O)C2)cc1` (configuration not stated) the lipid storage change, negative = inhibition was inconclusive: 50.1%. For `Cn1nc(NC(=O)C(F)(F)F)c2ncc(-c3ccc(Cl)cc3)nc21`, the lipid storage change, negative = inhibition was inconclusive: 16.6%. With `CCc1nc(Nc2cccc(O)c2)c2oc3ccccc3c2n1` the lipid storage change, negative = inhibition was inconclusive: 20.3%. With `COc1ccc(C2(C(=O)NCCN3CCOCC3)CCOCC2)cc1` the lipid storage change, negative = inhibition was inconclusive: 2.72%. With `COCCNC(=O)CN(c1cc(Cl)ccc1OC)S(=O)(=O)c1ccc(C)c([N+](=O)[O-])c1` the Potency was inconclusive: 29.1 µM [cytotoxic, single point]. For `CC(=O)Nc1ccc(S(=O)(=O)NCCSCc2ccccc2Cl)cc1`, the lipid storage change, negative = inhibition was inconclusive: 2.9%. For `O=C(NNC1=NCCC1)c1ccc(Br)cc1`, the Potency was inconclusive: 0.103 µM [falling, full curve, poor fit]. With `CCOc1cc(Br)cc(C(c2c(C(=O)O)[nH]c3ccccc23)c2c(C(=O)O)[nH]c3ccccc23)c1O` the Potency was inconclusive: 29.1 µM [falling, single point]. In the case of `CCn1c(CCn2ccnc2C)n[nH]c1=S`, the lipid storage change, negative = inhibition is reported as inconclusive: -14.2%. For `CCc1nc(NCC2CCCO2)c(C#N)c2c1COC(C)(C)C2` (configuration not stated), the lipid storage change, negative = inhibition was inconclusive: -19.1%. In the case of `COc1cccc(/C=N/NC(=S)NCCc2ccccc2)c1`, the lipid storage change, negative = inhibition is reported as inconclusive: 183%. For `COc1ccc(OCC(O)CN2C(=O)c3ccccc3S2(=O)=O)cc1` (configuration not stated), the lipid storage change, negative = inhibition was inconclusive: -36.8%. In the case of `COc1ccc(Cl)cc1S(=O)(=O)n1c([N+](=O)[O-])cnc1C`, the Potency is reported as inconclusive: 2.06 µM [activator, partial curve]. With `Cc1ccc2nsnc2c1NC(=O)c1ccc([N+](=O)[O-])o1` the Potency was active: 18.4 µM. In the case of `CC(C)c1ccc(NC(=S)NCc2cccs2)cc1`, the lipid storage change, negative = inhibition is reported as inconclusive: 5.51%. In the case of `O=C(Nc1ccc(Oc2cccnc2)cc1)C1CCCCN1Cc1ccc(CO)o1` (configuration not stated), the lipid storage change, negative = inhibition is reported as inconclusive: 25.8%. For `O/N=C(/CCc1ccccc1)C1(O)CCCCC1`, the Potency was inconclusive: 29.1 µM [falling, single point]. With `CCCc1cc(=O)n2nc(N3CCC(C(=O)N4CCN(c5cccc(OC)c5)CC4)CC3)sc2n1` the lipid storage change, negative = inhibition was inconclusive: -45.5%. For `CCOc1ccc(NC(=O)c2csc3c2CCCC3)cc1`, the lipid storage change, negative = inhibition was inconclusive: -4.57%. For `N=c1sccn1CC(=O)Nc1ccccc1Cc1ccccc1`, the lipid storage change, negative = inhibition was inconclusive: -37%. For `Clc1ccc(CN2CCCCCC2)cc1`, the lipid storage change, negative = inhibition was “inactive”. In the case of `O=C(O)c1cnc(-c2ccccc2)nc1-c1ccccc1`, the lipid storage change, negative = inhibition is reported as inconclusive: -16.3%. For `Cc1noc(C)c1COc1ccccc1C(=O)N(C)CC(=O)Nc1ccc(F)c(F)c1F`, the lipid storage change, negative = inhibition was inconclusive: -41.1%. In the case of `O=C(Nc1ccc(-c2nc3ccccc3s2)cc1)C1=COCCO1`, the Potency is reported as inconclusive: 20.6 µM [activator, single point]. For `CCCn1c(SCc2cc(=O)oc3ccc4ccccc4c23)n[nH]c1=O`, the lipid storage change, negative = inhibition was inconclusive: 19.5%. With `COc1cccc(CN2CCC(n3nccc3NC(=O)CCOc3ccccc3)CC2)c1` the lipid storage change, negative = inhibition was inconclusive: -2.9%. With `CCNc1nc(NCC)nc(Nn2cnnc2)n1` the Potency was inconclusive: 0.164 µM [falling, full curve]. With `O=C(Cn1nc(Cl)nc1Cl)c1ccccc1` the lipid storage change, negative = inhibition was inconclusive: 49.1%. With `Cc1nnc(Nc2ccc3c(c2)OCO3)c2ccccc12` the Potency was inconclusive: 5.8 µM [activator, full curve, poor fit]. In the case of `CCCCCC(=O)N[C@@H](c1ccccc1)[C@@H](O)C(=O)O[C@H]1C[C@@]2(O)[C@@H](OC(=O)c3ccccc3)C3[C@](C)(C(=O)[C@H](OC(C)=O)C(=C1C)C2(C)C)[C@@H](O)C[C@H]1OC[C@@]31OC(C)=O` (some centres not stated), the lipid storage change, negative = inhibition is reported as inconclusive: -4.68%. In the case of `COc1ccc(CCN(Cc2cc3cc(C)c(C)cc3nc2Cl)C(=O)C2CC2)cc1`, the lipid storage change, negative = inhibition is reported as inconclusive: 12.7%. With `N#Cc1ccccc1OCC(=O)OCCCOC(=O)COc1ccccc1C#N` the Potency was inconclusive: 23.1 µM [falling, single point]. For `Cc1cc(C)n2c(SCCO)nnc2n1`, the lipid storage change, negative = inhibition was “inactive”. In the case of `CN(Cc1cccs1)C(=O)Cn1cnc2ccccc2c1=O`, the lipid storage change, negative = inhibition is reported as inconclusive: 13.1%. In the case of `S=C(NC1CC1)N1CCCc2ccccc21`, the lipid storage change, negative = inhibition is reported as “inactive”. In the case of `O=C(NCC1CCCO1)C(c1cccs1)N(Cc1cccs1)C(=O)c1ccc(-c2ccccc2)[nH]1` (configuration not stated), the lipid storage change, negative = inhibition is reported as inconclusive: 18.2%. For `Cc1cc2ncc(-c3cccs3)nc2cc1C`, the Potency was inconclusive: 6.51 µM [rising, full curve, poor fit]. In the case of `COC(=O)c1sc(N)c(C(=O)OC)c1CSc1nnc(-c2ccccc2Cl)n1C`, the lipid storage change, negative = inhibition is reported as inconclusive: 15.3%. For `C[C@]12CC[C@@H]3c4ccc(O)cc4CC[C@H]3[C@@H]1CC[C@@H]2O`, the Potency was inconclusive: 20.6 µM [falling, partial curve]. For `O=C(NC1(C(F)(F)F)C(=O)Nc2c1c(=O)[nH]c(=O)n2Cc1ccco1)C1CCCCC1` (configuration not stated), the lipid storage change, negative = inhibition was inconclusive: -1.54%. In the case of `CCOC(=O)c1[nH]c(C)c(C(=O)OCC(=O)NC(=O)NC(C)(C)C)c1C`, the Potency is reported as inconclusive: 2.06 µM [activator, full curve]. With `CC1CCC(NC(=O)COC(=O)C2=NN(c3ccccc3)C(=O)CC2)CC1` (configuration not stated) the lipid storage change, negative = inhibition was inconclusive: 8.47%. With `COCCn1c(Cc2ccccc2)nnc1SCC(=O)Nc1cc(C)on1` the lipid storage change, negative = inhibition was “inactive”. For `CCOC(=O)C1=C(CC)Nc2ccccc2N=C1NC(=O)c1ccc(OC)c(S(=O)(=O)N2CCCCC2C)c1` (configuration not stated), the lipid storage change, negative = inhibition was inconclusive: 41.7%. With `C=CCc1ccc(OCCOc2ccc(/C=N/n3cnnc3)cc2OCC)c(OC)c1` the Potency was inconclusive: 29.1 µM [activator, single point]. In the case of `Cc1ccc(Nc2nc(N)c([N+](=O)[O-])c(N3CCOCC3)n2)cc1`, the lipid storage change, negative = inhibition is reported as inconclusive: -0.0644%. In the case of `O=C(O)CCC(=O)NN1C(=O)c2ccccc2NC1c1ccc(F)cc1` (configuration not stated), the lipid storage change, negative = inhibition is reported as inconclusive: -52.4%. With `CC(=O)c1sc(NC(=O)c2cc(=O)c3ccccc3o2)nc1C` the lipid storage change, negative = inhibition was “inactive”. With `O=C(Cc1ccccc1)Nc1nnc(-c2cccc([N+](=O)[O-])c2)s1` the lipid storage change, negative = inhibition was “inactive”. For `CN(C)CCCn1c2c(c(SCC(=O)Nc3ccc4c(c3)OCO4)nc1=O)CCCC2`, the Potency was inconclusive: 20.6 µM [activator, single point]. For `COc1ccc(S(=O)(=O)N2CCN=C2SCc2cccc(C)c2)cc1`, the lipid storage change, negative = inhibition was inconclusive: -12.1%. With `O=C(Nc1nnc(C2CC2)s1)c1cc(S(=O)(=O)N2CCCCC2)ccc1N1CCOCC1` the Potency was inconclusive: 9.2 µM [activator, partial curve]. For `CC(=O)NC(c1ccco1)c1cc(Cl)c2ccc(N(C)C)nc2c1O` (configuration not stated), the lipid storage change, negative = inhibition was inconclusive: 15.5%. For `COc1ccc(NS(=O)(=O)c2ccc3ccccc3c2)c2ncccc12`, the Potency was inconclusive: 29.1 µM [falling, partial curve, poor fit]. With `Clc1ccccc1CN(Cc1ccco1)Cc1nnnn1C1CCCC1` the Potency was inconclusive: 10.3 µM [falling, partial curve]. With `Cc1cc(NC(=O)CSc2nnc(-c3ccc(S(=O)(=O)N4CCCC4)cc3)n2C)no1` the Potency was inconclusive: 0.103 µM [falling, full curve, poor fit]. In the case of `CC(=O)Nc1ccc(NC(=O)CSc2nnc(-c3cccs3)n2C)cc1`, the lipid storage change, negative = inhibition is reported as inconclusive: 54.7%. In the case of `COc1ccc(O)c(-c2nc(N)nc(N)n2)c1`, the lipid storage change, negative = inhibition is reported as inconclusive: -17.1%.
